± gives the standard error. The uncertainty is large for many entries.
B1: glmS ribozyme (parent)
chain: AUAAAAGCGCCAGAACUACAGAAAUGUAGUUGACGAGGAGGAGGUUUAUCGAAUUUUCGGCGGAUGCCUCCAAA

Variants of: B1
Assay: self-cleavage kobs at 640 uM GlcN6P; higher = faster cleavage; RNA array
Details: with glucosamine-6-phosphate
Method in brief: (§1)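 Tiles of sequenced MiSeq chips were imaged over ~14 h at 37 °C. On them, barcoded ribozyme variants had been transcribed in situ by E. coli RNA polymerase and were tracked via a hybridised Cy3 probe while glucosamine-6-phosphate (40 μM to 10 mM) in HEPES/KCl/Mg(OAc)2 buffer flowed in. Per-tile medians, normalised to baseline and to non-cleaving reference variants, were fit to one- or two-exponential decays for kobs, and weighted Michaelis–Menten fits gave kcat and KM.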

| Variant | self-cleavage kobs at 640 uM GlcN6P [s⁻¹] |
| --- | --- |
| C58G C71A | 0.00112 ± 0.00067 |
| G41C A42G C70A | 4.49e-05 ± 2.7e-05 |
| A33G G62U U69G | 2.98e-05 ± 2.4e-05 |
| A64G C68U | 1.79e-05 ± 1.4e-05 |
| C16A G37A | 2.7e-05 ± 1.5e-05 |
| C50U G66U C67G | 2.42e-05 ± 2.1e-05 |
| A39C G44A | 1.55e-05 ± 1.5e-05 |
| G40U A52U | 2.92e-05 ± 1.6e-05 |
| C67A C70G C71U | 3.48e-05 ± 2.3e-05 |
| C50A A53U C67U C68G | 3.99e-05 ± 3.3e-05 |
| U57G C67U | 2.72e-05 ± 1.8e-05 |
| U30C A39C | 1.45e-05 ± 1.3e-05 |
| A52G C68A | 2.84e-05 ± 1.6e-05 |
| A36U A53U C67U C68A | 0.000101 ± 5.2e-05 |
| C58U C68U | 2.02e-05 ± 1.2e-05 |
| A42G A64U | 3.24e-05 ± 1.7e-05 |
| A52G G66A C68U C71G | 4.02e-05 ± 2.2e-05 |
| C61A C70G | 1.69e-05 ± 1.5e-05 |
| G63A C68A | 1.79e-05 ± 1.8e-05 |

Quoted at random: 7 records from the list, in no set order.

| Variant | self-cleavage kobs at 640 uM GlcN6P [s⁻¹] |
| --- | --- |
| U57G C67U | 2.72e-05 ± 1.8e-05 |
| A52G C68A | 2.84e-05 ± 1.6e-05 |
| A52G G66A C68U C71G | 4.02e-05 ± 2.2e-05 |
| A64G C68U | 1.79e-05 ± 1.4e-05 |
| C50A A53U C67U C68G | 3.99e-05 ± 3.3e-05 |
| A36U A53U C67U C68A | 0.000101 ± 5.2e-05 |
| A39C G44A | 1.55e-05 ± 1.5e-05 |

(cont.)

| Variant | self-cleavage kobs at 640 uM GlcN6P [s⁻¹] |
| --- | --- |
| G44U C71U | 1.26e-05 ± 9.2e-06 |
| A52U C68A C70U | 3.27e-05 ± 2.2e-05 |
| G37U C68G | 2.64e-05 ± 1.5e-05 |
| A48U U69G | 4.36e-05 ± 2.3e-05 |
| U30A C50A C68U | 3.12e-05 ± 2.1e-05 |
| G59A C68G | 1.71e-05 ± 1.6e-05 |
| C58A C68G C71A | 5.04e-05 ± 2.6e-05 |
| G51A C68G | 0.000252 ± 0.00019 |
| U55G C58U C70U | 3.43e-05 ± 2.2e-05 |
| C16U U47A C58G | 2.74e-05 ± 2.2e-05 |
| C34G C68G | 3.97e-05 ± 2.3e-05 |
| U57C G66A | 1.86e-05 ± 1.6e-05 |
| U31G A52U | 2.06e-05 ± 1.4e-05 |
| U56G C58A C71A | 2.66e-05 ± 2e-05 |
| G38A C67A U69A | 2.49e-05 ± 2e-05 |
| U49G C61A | 1.72e-05 ± 1.4e-05 |
| A52U C67U C68U | 4.45e-05 ± 3.8e-05 |
| G32A A53U U56A C71U | 1.27e-05 ± 8.5e-06 |
| C16U G37U C50A G60U C68U | 2.93e-05 ± 2.1e-05 |

| Variant | self-cleavage kobs at 640 uM GlcN6P [s⁻¹] |
| --- | --- |
| U56G C58U | 1.61e-05 ± 9.6e-06 |
| U30G U55C U65A C71U | 2.33e-05 ± 1.3e-05 |
| C16U A42G U57C | 4.56e-05 ± 2.6e-05 |
| C58U C67A | 2.32e-05 ± 1.6e-05 |
| A15U U47A G51A C67G C68A | 3.52e-05 ± 2.4e-05 |
| A23C C70A | 0.000158 ± 7.9e-05 |
| G29C A64G G66U | 2.21e-05 ± 1.8e-05 |
| C16U C34G C50G | 4.75e-05 ± 2.4e-05 |
| U31G A48C U57G C70G | 2.61e-05 ± 1.8e-05 |
| C67U C70A | 1.82e-05 ± 1.2e-05 |
| A33U G59A C71A | 4.68e-05 ± 2.6e-05 |
| G37C U47G G60C U65G | 5.14e-05 ± 2.7e-05 |
| A18C U31G U49G | 3.57e-05 ± 2.8e-05 |
| G35U U55G C67G | 0.00178 ± 0.00094 |
| U31G U57C G66C C70U | 2.62e-05 ± 2.6e-05 |
| G32A A39U U56A | 2.33e-05 ± 1.2e-05 |
| U31A C68G | 2.18e-05 ± 1.4e-05 |
| U54A C61A G63C C67G | 4.83e-05 ± 2.6e-05 |
| U30G U55A C61G C71G | 4.71e-05 ± 2.9e-05 |

Variants of: B1
Assay: self-cleavage kobs at 160 uM GlcN6P; higher = faster cleavage; RNA array
Details: with glucosamine-6-phosphate
Method in brief: as §1

| Variant | self-cleavage kobs at 160 uM GlcN6P [s⁻¹] |
| --- | --- |
| A15U C68A | 2.08e-05 ± 1.7e-05 |
| A33G G62U U69G | 2.16e-05 ± 1.5e-05 |
| C11G U55G G59C | 7.14e-05 ± 4.3e-05 |
| C16U A48U | 2.52e-05 ± 1.5e-05 |
| A15C U47C | 1.89e-05 ± 1.1e-05 |
| G29A A52G | 2.72e-05 ± 1.4e-05 |
| A12U A39G U47G U54A U69A | 3.47e-05 ± 2.4e-05 |
| A12G A14U | 2.19e-05 ± 1.3e-05 |
| A15C G41U | 2.25e-05 ± 1.7e-05 |
| C10A U47A C70G | 4.91e-05 ± 3e-05 |
| C16A U56G U65G | 3.52e-05 ± 2.6e-05 |
| A12G U54C | 3.94e-05 ± 2.2e-05 |
| C11U G66A | 3.42e-05 ± 2.2e-05 |
| G37U C68G | 1.72e-05 ± 1.2e-05 |
| A48U U69G | 2.31e-05 ± 2.1e-05 |
| G59A C68G | 1.62e-05 ± 1.5e-05 |
| G51A C68G | 2.81e-05 ± 1.5e-05 |
| C34G C68G | 2.28e-05 ± 2.1e-05 |
| G7U U69G | 2.14e-05 ± 2.1e-05 |
| A12G A15U C70G | 2.35e-05 ± 2.3e-05 |
| C16U C50A | 2.17e-05 ± 2.1e-05 |
| C11A C70A | 0.000485 ± 0.0003 |
| A12G C67U | 2.89e-05 ± 1.5e-05 |
| A12G A53C | 1.45e-05 ± 1.4e-05 |

Variants of: B1
Assay: self-cleavage kobs at 2500 uM GlcN6P; higher = faster cleavage; RNA array
Details: with glucosamine-6-phosphate
Method in brief: as §1

| Variant | self-cleavage kobs at 2500 uM GlcN6P [s⁻¹] |
| --- | --- |
| C11G U55G G59C | 0.000375 ± 0.00024 |
| C67A C70G C71U | 2.65e-05 ± 2.5e-05 |
| C61A C70G | 1.88e-05 ± 1.7e-05 |
| G63A C68A | 2.61e-05 ± 2.2e-05 |
| G37U C68G | 2.08e-05 ± 1.5e-05 |
| G59A C68G | 1.72e-05 ± 1.4e-05 |
| G51A C68G | 3.6e-05 ± 1.8e-05 |
| A52U C67U C68U | 3.06e-05 ± 2.2e-05 |
| C16U G37U C50A G60U C68U | 3.35e-05 ± 2.6e-05 |
| C58U C67A | 1.87e-05 ± 1.2e-05 |
| C67U C70A | 1.98e-05 ± 1.2e-05 |
| C11A C70A | 2.75e-05 ± 1.7e-05 |
| A18C U31G U49G | 3.09e-05 ± 1.7e-05 |
| U54A C61A G63C C67G | 6.71e-05 ± 4.1e-05 |

Variants of: B1
Assay: self-cleavage kobs at 10000 uM GlcN6P; higher = faster cleavage; RNA array
Details: with glucosamine-6-phosphate
Method in brief: as §1

| Variant | self-cleavage kobs at 10000 uM GlcN6P [s⁻¹] |
| --- | --- |
| U56G C58A C71A | 3.2e-05 ± 1.8e-05 |
| C11A C70A | 2.05e-05 ± 1.4e-05 |

Source: the supplement of paper PMC7125110
